Laboratory results taken from article PMC7162874.

Sequences of proteins named here, by UniProt entry; tags and fusion partners are left off.
UniProt Q99459: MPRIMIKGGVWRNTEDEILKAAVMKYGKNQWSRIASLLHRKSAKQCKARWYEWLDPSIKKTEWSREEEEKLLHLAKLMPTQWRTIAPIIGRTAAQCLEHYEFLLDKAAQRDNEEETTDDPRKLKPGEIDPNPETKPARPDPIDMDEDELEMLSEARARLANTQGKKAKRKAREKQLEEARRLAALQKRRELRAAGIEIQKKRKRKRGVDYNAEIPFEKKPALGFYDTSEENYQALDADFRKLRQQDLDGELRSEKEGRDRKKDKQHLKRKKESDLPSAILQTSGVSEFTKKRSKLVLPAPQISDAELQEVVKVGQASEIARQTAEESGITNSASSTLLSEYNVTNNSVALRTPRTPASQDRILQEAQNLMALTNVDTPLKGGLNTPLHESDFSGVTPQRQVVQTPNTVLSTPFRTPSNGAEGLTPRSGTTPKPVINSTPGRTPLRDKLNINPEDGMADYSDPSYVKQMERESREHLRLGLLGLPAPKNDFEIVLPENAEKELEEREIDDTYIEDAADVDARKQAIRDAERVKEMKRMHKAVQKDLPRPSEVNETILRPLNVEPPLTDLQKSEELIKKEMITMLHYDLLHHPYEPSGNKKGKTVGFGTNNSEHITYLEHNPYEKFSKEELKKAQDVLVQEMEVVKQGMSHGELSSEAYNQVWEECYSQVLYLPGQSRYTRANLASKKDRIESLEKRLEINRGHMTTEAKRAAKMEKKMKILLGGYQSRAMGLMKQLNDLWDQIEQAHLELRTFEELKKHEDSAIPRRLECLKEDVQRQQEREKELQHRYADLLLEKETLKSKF
UniProt O14641: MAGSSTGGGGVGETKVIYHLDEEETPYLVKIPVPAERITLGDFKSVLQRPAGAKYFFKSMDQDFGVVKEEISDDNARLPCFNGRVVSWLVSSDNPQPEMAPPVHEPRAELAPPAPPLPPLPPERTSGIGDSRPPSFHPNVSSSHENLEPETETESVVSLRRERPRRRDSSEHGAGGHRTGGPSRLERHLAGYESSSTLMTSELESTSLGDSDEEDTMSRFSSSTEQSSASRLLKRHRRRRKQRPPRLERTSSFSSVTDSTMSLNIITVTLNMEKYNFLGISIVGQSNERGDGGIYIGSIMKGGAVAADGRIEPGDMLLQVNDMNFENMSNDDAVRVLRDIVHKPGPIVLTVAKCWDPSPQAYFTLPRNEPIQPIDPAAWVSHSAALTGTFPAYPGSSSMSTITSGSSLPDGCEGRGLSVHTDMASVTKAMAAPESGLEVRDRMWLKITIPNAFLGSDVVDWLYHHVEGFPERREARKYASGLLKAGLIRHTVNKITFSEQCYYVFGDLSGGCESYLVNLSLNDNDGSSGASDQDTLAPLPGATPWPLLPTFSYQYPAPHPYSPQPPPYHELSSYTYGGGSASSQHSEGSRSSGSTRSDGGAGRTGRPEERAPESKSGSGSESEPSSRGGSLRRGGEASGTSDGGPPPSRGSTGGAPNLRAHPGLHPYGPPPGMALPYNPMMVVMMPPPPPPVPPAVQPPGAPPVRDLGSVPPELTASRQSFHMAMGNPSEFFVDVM

T1: WW domain-containing oxidoreductase (WWOX), wild type, stably overexpressed in MDA-MB435S cells (UniProt Q9NZC7)
T1 sequence: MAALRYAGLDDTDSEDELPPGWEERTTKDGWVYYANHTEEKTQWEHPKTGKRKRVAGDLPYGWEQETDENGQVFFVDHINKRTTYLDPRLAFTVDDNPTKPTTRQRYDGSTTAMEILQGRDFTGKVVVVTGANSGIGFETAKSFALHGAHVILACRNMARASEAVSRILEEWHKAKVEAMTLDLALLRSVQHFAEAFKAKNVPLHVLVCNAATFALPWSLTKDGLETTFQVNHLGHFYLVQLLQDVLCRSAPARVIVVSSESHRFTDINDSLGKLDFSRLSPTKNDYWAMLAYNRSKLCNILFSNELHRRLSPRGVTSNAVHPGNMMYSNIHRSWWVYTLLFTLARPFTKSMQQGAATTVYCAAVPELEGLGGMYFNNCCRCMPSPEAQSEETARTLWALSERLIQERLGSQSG

B1: SCAMP3 (secretory carrier membrane protein family), endogenous in MDA-MB435S cells (protein, UniProt O14828 1-347)
chain: MAQSRDGGNPFAEPSELDNPFQDPAVIQHRPSRQYATLDVYNPFETREPPPAYEPPAPAPLPPPSAPSLQPSRKLSPTEPKNYGSYSTQASAAAATAELLKKQEELNRKAEELDRRERELQHAALGGTATRQNNWPPLPSFCPVQPCFFQDISMEIPQEFQKTVSTMYYLWMCSTLALLLNFLACLASFCVETNNGAGFGLSILWVLLFTPCSFVCWYRPMYKAFRSDSSFNFFVFFFIFFVQDVLFVLQAIGIPGWGFSGWISALVVPKGNTAVSVLMLLVALLFTGIAVLGIVMLKRIHSLYRRTGASFQKAQQEFAAGVFSNPAVRTAAANAAAGAAENAFRAP
B2: MYCBP, c-Myc binding protein, endogenous in MDA-MB435S cells (protein, UniProt Q99417 1-103)
chain: MAHYKAADSKREQFRRYLEKSGVLDTLTKVLVALYEEPEKPNSALDFLKHHLGAATPENPEIELLRLELAEMKEKYEAIVEENKKLKAKLAQYEPPQEEKRAE

These molecules were tested against T1, WW domain-containing oxidoreductase (WWOX), wild type, stably overexpressed in MDA-MB435S cells (assay: affinity purification with mass spectrometry; IP with a cocktail of mouse anti-WWOX monoclonal antibodies and protein A/G plus agarose from whole cell extracts of MDA-MB435S cells (EV, WWOX or WFPA overexpressing), overnight at 4 °C; lysis buffer with NaCl, Tris, glycerol, NP-40 1%, pH 7.4; on-bead trypsin elution, Q Exactive; three biological replicates).

binding	Molecule
binds	CDC5L, cell division cycle 5-like, endogenous in MDA-MB435S cells (from UniProt Q99459 1-802)
binds	DVL2 (Disheveled 2), endogenous in MDA-MB435S cells (from UniProt O14641 1-736)
binds	B1
binds	B2

Results are given in words; binding and its absence hold for the method and conditions named. In cells and extracts the contact can be indirect. A yes stands for co-enrichment or nearness to the bait. Other partners may have been found. Sequences can lack the tags named with a protein.
